According to publication PMC5825103 (PLoS ONE, 2018):

Experiments:
[1] = tested on: uni-nephrectomised male Sprague-Dawley rats; test: organ protection in uni-nephrectomised rats on high-salt diet and aldosterone infusion; type: in vivo, rat; details: for BW end: 4 weeks
Experimental: The study on uni-nephrectomised rats was carried out by PreClinOmics (Indianapolis, Indiana, USA) and the study protocol was approved under the provisions outlined in PreClinOmics IACUC ethical application proposal #2013–184. […] The rats were maintained on Purina 5001 standard rodent chow ad libitum during facility acclimation (7 days). Animals were housed 2 rats/cage with a standard 12 hour light cycle and were kept at 22 to 25°C. […] Following mini pump implantation, animals were monitored daily for any clinical signs (especially inflammation at the subcutaneous incision site) for 1 week. […] Drinking water was supplemented with 0.3% KCl to prevent hypokalemia. Standard diet (5001, Purina Teklad, USA) was admixed with 6% NaCl and including test substances (Teklad #9386, Purina Teklad, USA) for the remainder of the study. Animals were assigned to treatment groups (n = 8) based on body weight before pump implantation. […] The test substances were provided in powder form to Purina Teklad for pelleting in Teklad 9386 diet at 0.18, 0.54 or 1.8 g kg^-1 diet. […] Test diets were fed ad libitum for 4 weeks. Animals were placed in standard rodent metabolic cages, on 3 separate occasions, with food and water for collection of 24 hour urine samples at baseline and 2 and 4 weeks after pump implantation. Urine samples were collected at room temperature without additives. Urine volume was measured using a graduated cylinder. Urine creatinine (Beckman, OSR6178) was assayed from fresh sample. […] For details on time points, see Method section for the pharmacokinetic-pharmacodynamic analysis. Animals were anesthetized on day 30 using CO2 inhalation and terminated via induction of pneumothorax. Terminal blood samples were collected by cardiac puncture. […] Premier provided pathologists scoring of Hematoxylin and Eosin, and Masson’s Trichrome stained slides for renal fibrosis and glomerulonephritis. Each animal had two blocks processed, one for myocardium (not reported here) and one for kidney. All blocks were grossed, processed and had two slides cut from each block: one stained with Hematoxylin and Eosin and one stained with Masson’s Trichrome. For kidney sections, pathology involved glomerular lesions, interstitial inflammation and tubular lesions (collectively, “glomerulonephritis”). Fibrosis, both within glomeruli and within the interstitial space, was scored using the Masson’s Trichrome stain. […] All scoring was performed on blinded samples.

[2] = tested on: uni-nephrectomised db/db mice; test: organ protection in db/db uni-nephrectomised mice; type: in vivo; details: for BG w22 / HbA1c w22 / p-crea end: after 4 weeks treatment; for BW w22: after 4 weeks, AZD9977 or eplerenone 100 mg kg^-1 d^-1 in food, enalapril 200 mg l^-1 in drinking water

## CNC(=O)C[C@H]1COc2cc(F)ccc2N1C(=O)c1ccc2c(c1)NC(=O)CO2 [AZD9977, (S)-2-(7-Fluoro-4-(3-oxo-3,4-dihydro-2H-benzo[b][1, 4]oxazine-6-carbonyl)-3,4-dihydro-2H-benzo[b][1, 4]oxazin-3-yl)-N-methylacetamide]
[1]; 10 mg kg-1 d-1 group
  BW start: 361 ± 8 g
[1]; 10 mg kg-1 d-1 in diet
  BW end: 505 ± 11 g
  WI end: 171 ± 14 mL/24h
  p-crea end: 3.4 ± 0.3 µg/mL
[1]; 30 mg kg-1 d-1 group
  BW start: 363 ± 5 g
[1]; 30 mg kg-1 d-1 in diet
  BW end: 514 ± 13 g
  WI end: 159 ± 8 mL/24h
  p-crea end: 3.4 ± 0.2 µg/mL
[1]; 100 mg kg-1 d-1 group
  BW start: 365 ± 8 g
[1]; 100 mg kg-1 d-1 in diet
  BW end: 516 ± 20 g
  WI end: 121 ± 10 mL/24h
  p-crea end: 2.9 ± 0.1 µg/mL
[2]
  BG w22: > 29.4 mM
  HbA1c w22: > 12%
  p-crea end: 5.8 ± 0.2 µg/mL
  BW w22: 41.4 ± 1.9 g

## CCOC(=O)[C@H](CCc1ccccc1)N[C@@H](C)C(=O)N1CCC[C@H]1C(=O)O [enalapril]
[2]
  BG w22: > 29.4 mM
  HbA1c w22: > 12%
  p-crea end: 5.0 ± 0.2 µg/mL
  BW w22: 39.3 ± 1.8 g

## COC(=O)[C@@H]1CC2=CC(=O)CC[C@]2(C)[C@@]23O[C@@H]2C[C@@]2(C)[C@@H](CC[C@@]24CCC(=O)O4)[C@H]13 [eplerenone]
[1]; 10 mg kg-1 d-1 group
  BW start: 361 ± 4 g
[1]; 10 mg kg-1 d-1 in diet
  BW end: 519 ± 14 g
  WI end: 144 ± 7 mL/24h
  p-crea end: 2.9 ± 0.1 µg/mL
[1]; 30 mg kg-1 d-1 group
  BW start: 361 ± 5 g
[1]; 30 mg kg-1 d-1 in diet
  BW end: 520 ± 15 g
  WI end: 129 ± 6 mL/24h
  p-crea end: 3.2 ± 0.2 µg/mL
[2]
  BG w22: > 29.4 mM
  HbA1c w22: > 12%
  p-crea end: 5.9 ± 0.2 µg/mL
  BW w22: 42.5 ± 1.8 g
